Patent US12350260B2 (priority 2019, dated 2025)
For at least one compound, name, drawing or mass did not settle the structure.

Test system: primary human epidermal keratinocytes
Assay type: cell-based

## COc1ccc(C(=O)O[C@H]2CC[C@@]3(C)[C@@H]4CC[C@H]5[C@]6(O)C[C@H](O)[C@@]7(O)[C@@H](CN8C[C@@H](C)CC[C@H]8[C@@]7(C)O)[C@]6(O)C[C@@]53O[C@]24O)cc1OC [veratridine]
  [Ca2+]i change in keratinocytes: induced an important [Ca2+]i increase
